The record followed here is patent publication US20250090493A1, “THERAPEUTIC COMPOSITION DELIVERY DEVICE” (Helios Cardio Inc., priority 2021, published 2025).

Read-outs that look alike come from different tables or passages of the source.

The nature of this data set: Amiodarone quantification in tissues by LC/MS after pericardial repair with amiodarone-soaked EBM patch, or IV amiodarone control, ovine model. The format is in vivo. The conditions noted are these: sheep; for concentration at 3 day / concentration at 28 day: 300 mg. The text has this:
Specifically, EBM under the tradename CardiaMend™ was used. The device was approximately 1 mm thick (range 0.75-1.54 mm). An ovine model was used for a pericardial repair procedure. […] The EBM patch was then inserted through a hole cut through the pericardium via a mini-thoracotomy approach and secured with sutures at the margins of the pericardial defect. Following closure of the superficial muscle and skin, the animals were recovered, and housed until sacrifice at 3 days, 7 days, and 28 days. […] Following sacrifice, the repair site was explored, and the implant and heart were grossly evaluated for signs of inflammation, scarring, or fibrosis. Gross images were acquired.

In the case of `CCCCc1oc2ccccc2c1C(=O)c1cc(I)c(OCCN(CC)CC)c(I)c1` [Amiodarone, amiodarone], the concentration at 3 day was 64000 ng/g (EBM 7 cm by 10 cm soaked in 6 mL of 50 mg/mL amiodarone hydrochloride, pericardial patch, myocardium, day 3, read-out: Amiodarone concentration, Myocardium, Day 3 Average); 2610 ng/g (liver, amiodarone-soaked EBM pericardial patch, liver, day 3, read-out: Amiodarone concentration, Liver, Day 3 Average); 7300 to 158000 ng/g (myocardium, amiodarone-soaked EBM pericardial patch, myocardium, day 3, range, read-out: Range of amiodarone tissue concentrations in the myocardium, 3 days); 2550 ng/g (plasma, amiodarone-soaked EBM pericardial patch, blood plasma, day 3, read-out: Amiodarone concentration, Blood Plasma, Day 3 Average). Moreover, the concentration at 28 day is, setting by setting: (liver, amiodarone-soaked EBM pericardial patch, liver, day 28, read-out: Amiodarone concentration, Liver, Day 28 Average) 20 ng/g; (myocardium, amiodarone-soaked EBM pericardial patch, myocardium, day 28, read-out: Amiodarone concentration, Myocardium, Day 28 Average) 7800 ng/g; (plasma, amiodarone-soaked EBM pericardial patch, blood plasma, day 28, read-out: Amiodarone concentration, Blood Plasma, Day 28 Average) 0 ng/g. The “Amiodarone concentration, Blood Plasma, Day 28 Average” value (amiodarone-soaked EBM pericardial patch, blood plasma, day 28) is “below the limit of detection”. Also, the “Amiodarone concentration, Myocardium, Day 28 Average” value (amiodarone-soaked EBM pericardial patch, myocardium, day 28) is 7.82 µg/g.
